Source: patent US20160046678A1 (ZYNGENIA, published 2016)
These are yes or no findings as the source states them, for the method shown. Some binding calls cover weakened binding; strength is not graded here.

B1: EGB380 (peptide)
peptide: WSGLCLWDMFWQQCHGSS
B2: EGB354 (peptide)
peptide: WKPWCKLYWRADPACLQIK
B3: EGB440 (peptide)
peptide: WSGWCFYGSYWGHCKGIL
B4: EGB364 (peptide)
peptide: VAQSSAFCEEFPVHWYCSFYVG
B5: EGB356 (peptide)
peptide: WSGWCMYTWGWAPCRSVD
B6: EGB386 (peptide)
peptide: WSGWCFHETHWQHCSAGG
B7: EGB350 (peptide)
peptide: ERALCHKPWSHIMPWCPQKL
B8: EGB442 (peptide)
peptide: WSGWCLMETGWGHCKGLP
B9: EGB408 (peptide)
peptide: WQGYCYQEVYALWDHCSGPL
B10: EGB431 (peptide)
peptide: WTGYCLSSERHKWHHCFGRS
B11: EGB358 (peptide)
peptide: WSGWCVKQNAWYFCTGKI
B12: EGB439 (peptide)
peptide: WSGWCFYGDRWGHCSGLP
B13: EGB403 (peptide)
peptide: WSGWCFQETHWQHCMGLR
B14: EGB437 (peptide)
peptide: WSGWCFYVDHWDYCGGLI
B15: EGB389 (peptide)
peptide: WSGYCFDRGYWQQCSSAW
B16: EGB425 (peptide)
peptide: WSGWCEEELQWSFCSGHL
B17: EGB400 (peptide)
peptide: WSGWCQSHGEWMRCRSWT
B18: EGB414 (peptide)
peptide: WSGYCYEGVTWRSCWGDM
B19: EGB407 (peptide)
peptide: WTGYCVDQERHQWHQCFGRS
B20: EGB344 (peptide)
peptide: WNRICMYQWANHFTVCAPGP
B21: EGB383 (peptide)
peptide: SVLGCDDVGFYQCLEFLGQA
B22: EGB433 (peptide)
peptide: WSGYCQMKDHWAHCGHSE
B23: EGB438 (peptide)
peptide: WSGYCEGTDHWYHCGGSM
B24: EGB406 (peptide)
peptide: WRGWCQIAGEWQHCSNYS
B25: EGB412 (peptide)
peptide: MIEFCWYYMALPECWIPT
B26: EGB385 (peptide)
peptide: WSGYCFDSTHEGWYQCGAVS
B27: EGB432 (peptide)
peptide: WSGWCFQFDNWDRCPGSV
B28: EGB398 (peptide)
peptide: WSGYCNSNGAWMMCGGGT
B29: EGB421 (peptide)
peptide: WSGLCLTEEVWHVCQGTI
B30: EGB391 (peptide)
peptide: WSGYCYVFDHWESCRGRE
B31: EGB373 (peptide)
peptide: VAQREKHCVPEWYCKHYM
B32: EGB339 (peptide)
peptide: LLFDCWRIPEWHACGKDY
B33: EGB394 (peptide)
peptide: WSGWCMISNQWRHCGSPD
B34: EGB410 (peptide)
peptide: GSMLCLWFNDNPQCFEVC
B35: EGB430 (peptide)
peptide: WTGWCYMEHFWDICHGPA
B36: EGB428 (peptide)
peptide: WSGWCFYQVEYIWRSCEPAS
B37: EGB387 (peptide)
peptide: WTGWCLVENQWTYCQNGD
B38: EGB435 (peptide)
peptide: WSGWCLFADGWGHCYGVI
B39: EGB444 (peptide)
peptide: WSGWCFSADGWGHCRGVI
B40: EGB409 (peptide)
peptide: WSGWCFAMEHQKWKQCAGSS
B41: EGB427 (peptide)
peptide: WSGWCYSQALMSWTYCHEFK
B42: EGB419 (peptide)
peptide: SFTLTCGAHQCLCHVL
B43: EGB423 (peptide)
peptide: WTGFCQSSKTQKWQHCRGGG
B44: EGB445 (peptide)
peptide: WSGYCDMGDHWSHCGHSG
B45: EGB404 (peptide)
peptide: WTGFCFDENHWYICGTGR
B46: EGB401 (peptide)
peptide: WSGWCEEQFGWSQCRRSP
B47: EGB392 (peptide)
peptide: WSGWCFKEAGWGHCMGLP
B48: EGB388 (peptide)
peptide: WSGWCFEEAGWGHCMGLP
B49: EGB375 (peptide)
peptide: WSGWCWSDESKYWYSCHSRA
B50: EGB411 (peptide)
peptide: WSGWCETPHQWHDCKGTI
B51: EGB335 (peptide)
peptide: YGKKCDKHDHSKPGVCIKKY
B52: EGB413 (peptide)
peptide: IIEFCWYLQQYDECWVPK
B53: EGB416 (peptide)
peptide: WSGWCFQFDNWDHCTGSV
B54: EGB426 (peptide)
peptide: WSGYCVDFEFPAWGYCHGNI
B55: EGB395 (peptide)
peptide: WTGWCEGHGQWGWCHSSL
B56: EGB429 (peptide)
peptide: NRSGCIEIHYEDCLLIV
B57: EGB393 (peptide)
peptide: WSGCCHWEAAWNNCGGWT
B58: EGB396 (peptide)
peptide: WVVSCHTSTQVLMCVCLL
B59: EGB436 (peptide)
peptide: WSGWCFIKTHWGHCYGQI
B60: EGB399 (peptide)
peptide: WSGWCFEQAGWGHCLGLP
B61: EGB420 (peptide)
peptide: WSGWCQHMQVPIWHACSGGL
B62: EGB367 (peptide)
peptide: VAQSSEHCYFGWNSYHCWSQAG
B63: EGB441 (peptide)
peptide: WSGYCEFEDHWDYCGTPK
B64: EGB384 (peptide)
peptide: WSGWCQFKDGQWAKCTGRV

The binders below were run against ErbB2 (UniProt P04626) (assay: MRD identification, Example 48).

binding, binds:
B1
B2
B3
B4
B5
B6
B7
B8
B9
B10
B11
B12
B13
B14
B15
B16
B17
B18
B19
B20
B21
B22
B23
B24
B25
B26
B27
B28
B29
B30
B31
B32
B33
B34
B35
B36
B37
B38
B39
B40
B41
B42
B43
B44
B45
B46
B47
B48
B49
B50
B51
B52
B53
B54
B55
B56
B57
B58
B59
B60
B61
B62
B63
B64
